According to patent US20150056210A1:
No constants are given. Whether binding was seen depends on the method and setting. Some results given as binding are weak or reduced against the parent protein; the word gives no strength. Where a sequence is shown, tags or fusion partners need not be part of it.

What was measured:
[1] = target: T1, ADAMTS-5 3×FLAG full length (human) (UniProt Q9UNA0); experiment: sandwich ELISA, antibody coated at 2 µg/mL, purified ADAMTS-5 at 4 µg/ml, anti-FLAG detection
T1 sequence: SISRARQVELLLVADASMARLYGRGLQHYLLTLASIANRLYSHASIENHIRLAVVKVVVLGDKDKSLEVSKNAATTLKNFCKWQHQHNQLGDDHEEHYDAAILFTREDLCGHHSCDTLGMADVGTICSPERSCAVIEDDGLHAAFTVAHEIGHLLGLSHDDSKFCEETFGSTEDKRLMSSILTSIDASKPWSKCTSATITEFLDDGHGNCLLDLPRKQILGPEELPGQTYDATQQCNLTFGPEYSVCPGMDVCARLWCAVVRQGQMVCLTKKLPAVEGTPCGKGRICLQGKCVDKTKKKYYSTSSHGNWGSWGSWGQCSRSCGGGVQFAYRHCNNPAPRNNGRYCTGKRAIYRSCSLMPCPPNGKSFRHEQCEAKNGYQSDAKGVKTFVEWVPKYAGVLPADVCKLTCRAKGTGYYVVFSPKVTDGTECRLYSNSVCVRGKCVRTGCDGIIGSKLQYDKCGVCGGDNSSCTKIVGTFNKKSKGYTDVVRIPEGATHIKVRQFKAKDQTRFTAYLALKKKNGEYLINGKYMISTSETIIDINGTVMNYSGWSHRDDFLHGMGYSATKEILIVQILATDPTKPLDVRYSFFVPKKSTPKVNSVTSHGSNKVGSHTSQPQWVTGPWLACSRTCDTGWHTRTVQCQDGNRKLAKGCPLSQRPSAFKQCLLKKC

[2] = target: T1, ADAMTS-5 3×FLAG full length (human); experiment: cell ELISA on FreeStyle 293-F cells stably expressing ADAMTS-5 3×FLAG
[3] = target: T1, ADAMTS-5 3×FLAG full length (human); experiment: immunoprecipitation of 0.1 µg TS5-FL with 11, 22 and 25 µg antibody, anti-FLAG immunoblot
[4] = target: T2, ADAMTS-4 3×FLAG full length (human) (UniProt O75173); experiment: immunoprecipitation of 0.2 µg TS4-FL with 30 and 60 µg antibody, anti-FLAG immunoblot
T2 sequence: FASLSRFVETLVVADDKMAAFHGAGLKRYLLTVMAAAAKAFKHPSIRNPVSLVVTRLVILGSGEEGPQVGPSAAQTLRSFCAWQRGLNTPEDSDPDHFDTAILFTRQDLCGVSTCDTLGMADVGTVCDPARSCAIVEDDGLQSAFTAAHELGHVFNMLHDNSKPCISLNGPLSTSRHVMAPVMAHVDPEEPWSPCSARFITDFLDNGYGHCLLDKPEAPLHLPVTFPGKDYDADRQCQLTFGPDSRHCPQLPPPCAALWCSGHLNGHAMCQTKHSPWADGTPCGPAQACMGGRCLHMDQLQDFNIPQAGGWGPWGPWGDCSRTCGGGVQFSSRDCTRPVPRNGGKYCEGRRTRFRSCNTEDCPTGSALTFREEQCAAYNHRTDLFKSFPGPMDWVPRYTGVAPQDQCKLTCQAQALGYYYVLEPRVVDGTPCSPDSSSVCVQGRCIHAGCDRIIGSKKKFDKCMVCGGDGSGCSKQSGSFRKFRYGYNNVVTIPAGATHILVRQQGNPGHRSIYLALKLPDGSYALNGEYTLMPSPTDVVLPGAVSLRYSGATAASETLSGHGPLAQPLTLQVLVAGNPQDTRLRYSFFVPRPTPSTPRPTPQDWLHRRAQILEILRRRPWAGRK

[5] = target: T1, ADAMTS-5 3×FLAG full length (human); experiment: cell ELISA on FreeStyle 293-F cells stably expressing ADAMTS-5 3×FLAG, antibody at 10-5-2 µg/ml
[6] = target: T1, ADAMTS-5 3×FLAG full length (human); experiment: immunoprecipitation with Protein G, anti-FLAG immunoblot
[7] = target: T2, ADAMTS-4 3×FLAG full length (human); experiment: as above
[8] = target: T1, ADAMTS-5 3×FLAG full length (human); experiment: sandwich ELISA, antibody coated at 2 µg/mL, conditioned medium, anti-FLAG detection

B1: CRB0017_IgG4 (antibody, V domains shown)
VH: QVQLQQSGAELAKPGASVKMSCKASGYTFTSYWMHWVKQRPGQGLEWIGYINPSTGYTEYNQKFKDKATLTADKSSSTAYMQLGSLTSEDSAVYYCARGGYDDLGYWGQGTTLTVSS
VL: DIVITQDELSNPVTSGESVSISCRSSKSLLYKDGKTYLYWFLQRPGQSPQLPIYLMSTRASGVSDRFSGSGSGTDFTLEISRVKAEDVGVYYCQQLVEYPYTFGGGTKLEIK
- binding [1]: binds
- binding [2]: binds
- binding [3]: binds
- binding [4]: binds
- binding [5]: binds
- binding [6]: binds
- binding [7]: binds
- binding [8]: binds

B2: CRB0094_IgG4 (antibody, V domains shown)
VH: QVQLQQWGAGLLKPSGTLSLTCAVYGGSFSGYYWSWIRQPPGKGLEWIGEINHSGSTNYNPSLKSRVTISVDTSKNQFSLKLSSVTAADTAVYYCARTIWSTRHDFWSGYYSSNWFDPWGQGTLVTVSS
VL: QSVLTQPPSASGSPGQSVTISCTGTSSDVGGYNYVSWYQQHPGKAPKLLIYDVSNRPSGVSSRFSGSKSGNSASLTISGLQAEDEADYYCSSYTRRSTLEFGGGTKLTVL
- binding [1]: binds

B3: CRB0124_IgG4 (antibody, V domains shown)
VH: QVQLVQSGSDVKKPGASVRVSCKVSGYRLTEYPIHWVRQAPGKGLEYMGGFDLENGVTKAAPRFRGRFTMTEDTSTDSVYMELKSLTSEDTAVYYCVKGPGYGALVTSFTSWGLGTTVTVSS
VL: SYVLTQPPSVSVSPGQTASITCSGDKLEDKYACWYQQKPGQSPVLVIYHDYKRPSGIPERFSGSNSGNTATLTISRVEGGDEADYYCQVWDSGSDDQVFGGGTKLTVL
- binding [1]: binds

B4: CRB0123_IgG4 (antibody, V domains shown)
VH: QVQLQESGGGVVQPGRSLRLSCAASGFTFSGYGMNWVRQAPGTGLEWVATISFDGTDKYYADSVKGRFTISRDNAENTLYLQMNSLRAEDMAVYYCARDWSYAMDVWGQGTMVTVSS
VL: DIQMTQSPSSVSASVGDRVTITCRPSQGIGKYSAWYQQKPGKAPELPIYLASTLQSGVPSRFSDSGSGTEFTLTISSLQPEDFATYYCLQRNTYPWTFGQGTKVEIK
- binding [1]: binds
